{"source": "PubChem BioAssay", "note": "The shares of active, inactive and inconclusive entries below differ from those in the screen. Activity calls are given as the source filed them.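 Rule for the calls: active = signal drop whose fitted half-maximal concentration is at most twice the top valid dose, in every test run; inconclusive = mixed calls across runs, poor fit, or flat 30 to 70% inhibition; inactive = wrong direction, flat within 30%, or potency beyond limit.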"}
{"experiment": "RMG-1 ovarian cancer cell viability loss – cherry-pick, dose response (AID 687029);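 note: cells exposed to compound for 96 hours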", "settings": "RMG-1 viability, CellTiterGlo ATP luminescence, 96 h; at 35 µM (top of the series)"}
{"smiles": "COc1cc([C@@H]2c3cc4c(cc3[C@H](O)[C@H]3COC(=O)[C@H]23)OCO4)cc(OC)c1OC", "activity change, negative = inhibition": "inactive: 44.2%"}
{"smiles": "Brc1ccc2nc(-c3ccc(CN4CCC(c5nc6ccccc6[nH]5)CC4)cc3)c(-c3ccccc3)nc2c1", "activity change, negative = inhibition": "inactive: -5.81%"}
{"smiles": "O=c1[nH]nnc2c1ncn2C1OC(CO)C(O)C1O", "note": "(stereo not drawn)", "activity change, negative = inhibition": "inactive: 37.2%"}
{"smiles": "CCOCCCNC(=O)c1ccc2c(c1)N=C(CC)c1cc(Br)ccc1S2", "activity change, negative = inhibition": "inactive: 31.6%"}
{"smiles": "CCOc1ccc(C2=Nn3c(nnc3-c3ccccc3OC)SC2)cc1", "activity change, negative = inhibition": "inconclusive: -30%"}
{"smiles": "CC(=O)NC(c1ccc(Cl)cc1)c1ccc2cccnc2c1O", "note": "(stereo not drawn)", "activity change, negative = inhibition": "inconclusive: 18.5%"}
{"smiles": "COc1ccc2cc(CNCCOCCOCCNCc3ccc4cc(OC)ccc4c3)ccc2c1", "activity change, negative = inhibition": "inconclusive: 20.9%"}
{"smiles": "COc1cccc(-c2ccc3c(c2)[C@H]2[C@H](CCN2C(=O)NC2CCCCC2)[C@@H](CO)N3C)c1", "activity change, negative = inhibition": "inactive: 17.4%"}
